Reference: PubChem BioAssay AID2417 (National Center for Advancing Translational Sciences (NCATS), 2010)
The campaign covered roughly 140,000 compounds. About 4,300 (3.1%) were called active. The inconclusive results got no clear call from the source; some entries with a clear call stand among them for comparison.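 The calls were made as follows: active = readout at or below -70, meaning at least 70% loss of cells showing the perinucleolar compartment, a nuclear body marking cancer cells; inconclusive = readout between -30 and a set limit; inactive = the rest.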

assay: High Content Assay for Compounds that inhibit the Assembly of the Perinucleolar Compartment; settings: PC3M PTB-GFP, PNC prevalence imaging, 16 h; at 10 µM; hits give low values;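 also: plate controls were DMSO wells for no effect and camptothecin positive control wells for full effect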
Procedure, shortened: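 Compounds are pinned in duplicate onto adhered PC3M cells stably expressing GFP-tagged PTB and incubated 16 h at 37 C. Cells are then fixed, nuclei stained with Hoechst, and PNC-positive cells counted.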

Compound	activity change (PNC), negative = inhibition
COc1ccc(NC(=O)Cn2c(=O)n(CC(=O)NCc3ccco3)c(=O)c3ccccc32)cc1	inactive: -22.2%
Cc1c(C(=O)NC(C)CCc2ccccc2)cccc1[N+](=O)[O-] (stereo not given)	inconclusive: -41.8%
CCOc1cc(/C=N/NC(=O)CN2CCOCC2)ccc1OCc1ccc(Cl)cc1	inconclusive: -76.7%
CCC(Sc1nc2c(c(=O)[nH]1)CCC2)C(=O)Nc1cccc(OC)c1 (stereo not given)	inconclusive: -36.7%
NC(=O)c1sc2cc(C(F)(F)F)cnc2c1-c1cccs1	inactive: 23.1%
CC1CCCN(C(=O)C(Cc2ccccc2)n2cccc2)C1 (stereo not given)	inactive: 20.6%
CCc1nnc(NC(=O)CCC(=O)NCC2CCCO2)s1 (stereo not given)	inactive: 36.3%
COc1ccc(Cl)cc1-c1nc(N)nc(NC2CCCCC2)n1	inconclusive: -62.6%
CC(C)(C)NC(=O)Cn1c(SCC(=O)N2CCCCCC2)nc2ccccc21	active: -92.3%
Cc1[nH]n2c(=O)c(C#N)c(-c3ccccc3)nc2c1-c1ccccc1	inconclusive: -35.6%
Cc1ccc(C(=O)NCC(=O)NCC(=O)OCC(=O)c2ccc(Br)cc2)cc1	inactive: -13.3%
CCc1nnc(NC(=O)CSc2nnc(-c3cccnc3)n2CC)s1	active: -104%
Cc1ccc(NS(=O)(=O)c2cccc(C(=O)O)c2)cc1S(=O)(=O)N1CCCCC1	inactive: 10.6%
Cc1ccc(NC(=O)COc2ccccc2C(=O)Nc2ccccc2)cc1Cl	inactive: -9.6%
CCOc1ccccc1C1C(C#N)=C(N)Nc2onc(-c3ccccc3)c21 (stereo not given)	inconclusive: -38.8%
N=C1C(=O)OCC1c1ccccc1NC(=O)CN1CCCCC1 (stereo not given)	inconclusive: -71.3%
S=C(Nc1ccc(Cl)cc1)N1CCCC1	inactive: 36.8%
Cc1oc(C(=O)Nc2ccc(C(=O)O)cc2)cc1COc1ccccc1	inconclusive: -61.1%
COc1ccc(NC2=CC(=O)CC(C)(C)C2)cc1OC	inconclusive: -31.2%
COCCn1c(SCC(=O)c2ccccc2)nc2c(c1=O)SC(C)C2 (stereo not given)	inconclusive: -35.5%
CCn1c2ccccc2c2nc3cc(S(=O)(=O)N4CCOCC4)ccc3nc21	inconclusive: -37.6%
CC(C)OC(=O)C1C(=O)CC(C)(O)C(C(=O)OC(C)C)C1c1ccc(F)cc1 (stereo not given)	inactive: 23.3%
CCOc1ccc(C(=O)Nc2cccc(-c3cc4ccccc4oc3=O)c2)cc1[N+](=O)[O-]	inconclusive: -60.7%
Cc1ccc2cc(CN(C(=O)C3CCCO3)C3CCCCC3)c(=O)[nH]c2c1 (stereo not given)	inconclusive: -33.9%
O=C(COc1ccc(Cl)cc1)N/N=C/CCc1ccccc1	inconclusive: -34.7%

Sorted by length of the SMILES (largest number first): some entries from above
Compound	activity change (PNC), negative = inhibition
COc1ccc(NC(=O)Cn2c(=O)n(CC(=O)NCc3ccco3)c(=O)c3ccccc32)cc1	inactive: -22.2%
Cc1ccc(C(=O)NCC(=O)NCC(=O)OCC(=O)c2ccc(Br)cc2)cc1	inactive: -13.3%
CC(C)(C)NC(=O)Cn1c(SCC(=O)N2CCCCCC2)nc2ccccc21	active: -92.3%
